According to patent US6750231B2, “4-arylpiperidine derivatives for the treatment of pruritus” (Pfizer Inc, priority 1999, dated 2004):
Some of these results come from one statement about several compounds together.

Sequences of proteins named here, by UniProt entry; tags and fusion partners are left off. Residues count along the entry.
UniProt A0A0F6TMT6, 1-401: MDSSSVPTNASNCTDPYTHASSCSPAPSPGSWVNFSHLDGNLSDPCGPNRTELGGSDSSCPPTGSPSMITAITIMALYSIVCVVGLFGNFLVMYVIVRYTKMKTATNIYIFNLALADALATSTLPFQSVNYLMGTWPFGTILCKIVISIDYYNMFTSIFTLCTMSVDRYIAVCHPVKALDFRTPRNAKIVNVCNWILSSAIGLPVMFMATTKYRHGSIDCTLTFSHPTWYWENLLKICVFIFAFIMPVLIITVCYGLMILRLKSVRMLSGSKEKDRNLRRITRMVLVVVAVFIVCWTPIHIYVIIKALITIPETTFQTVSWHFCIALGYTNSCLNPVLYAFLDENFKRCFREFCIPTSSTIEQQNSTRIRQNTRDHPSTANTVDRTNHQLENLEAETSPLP

Target: T1, mu opioid receptor (Canis lupus familiaris, UniProt A0A0F6TMT6)
T1 construct: Laboratory bred beagles were used as a source of dog brain tissue; from tissue; host or cells: beagle dog brain without cerebellum, membrane homogenate
Experiment: mu opioid receptor binding assay in dog brain membranes ([3H]-DAMGO displacement)
Conditions: dog brain tissue, 3H ligand DAMGO, room temperature 90 minutes

SMILES | Ki [µM]
CC1CN(CCCc2ccccc2)CCC1(C)c1cccc(-c2c[nH]nn2)c1 (stereo not drawn) [Example 24, 3,4-Dimethyl-1-(3-phenylpropyl)-4-(3-(1H-1,2,3-triazol-4-yl)phenyl)piperidine] | ≤ 4
CCCCN1CCC(C)(c2cccc(-c3c[nH]nn3)c2)C(C)C1 (stereo not drawn) [Example 30, 1-Butyl-3,4-dimethyl-4-(3-(1H-1,2,3-triazol-4-yl)phenyl)piperidine] | ≤ 4
CC1CN(CCCCC#N)CCC1(C)c1cccc(-c2c[nH]nn2)c1 (stereo not drawn) [Example 11, 1-(5-Pentanenitrile)-3,4-dimethyl-4-(3-(1H-1,2,3-triazol-4-yl)phenyl)piperidine] | ≤ 4
CC1CN(CCCOc2ccccc2)CCC1(C)c1cccc(-c2c[nH]nn2)c1 (stereo not drawn) [Example 26, 3,4-Dimethyl-1-(3-phenoxypropyl)-4-(3-(1H-1,2,3-triazol-4-yl)phenyl)piperidine] | ≤ 4
CCCCCCN1CCC(C)(c2cccc(-c3nnn[nH]3)c2)C(C)C1 (stereo not drawn) [Example 46, 1-Hexyl-3,4-dimethyl-4-(3-(1H-tetrazol-5-yl)phenyl)piperidine] | ≤ 4
CCCCCCN1CCC(C)(c2cccc(-c3nc[nH]n3)c2)CC1 [Example 40, 1-Hexyl-4-methyl-4-(3-(1H-1,2,4-triazol-3-yl)phenyl)piperidine] | ≤ 4
CC1(c2cccc(-c3c[nH]nn3)c2)CCN(Cc2ccccc2)CC1 [Example 38, 1-Benzyl-4-methyl-4-(3-(1H-1,2,3-triazol-4-yl)phenyl)piperidine] | ≤ 4
CCCCCCN1CCC(C)(c2cccc(-c3cn[nH]c3)c2)C(C)C1 (stereo not drawn) [Example 47, 1-Hexyl-3,4-dimethyl-4-(3-(1H-pyrazol-4-yl)phenyl)piperidine] | ≤ 4
CCCCCCN1CCC(C)(c2cccc(-c3nn[nH]c3[Si](C)(C)C)c2)C(C)C1 (stereo not drawn) [Example 3, 1-Hexyl-3,4-dimethyl-4-(3-(5-(trimethylsilyl)-1H-1,2,3-triazol-4-yl)phenyl)piperidine] | ≤ 4
